# Where a name gives a salt, the structure may show the parent alone. This is one part of the list. Hit calls seldom repeat between salt and free forms of one compound.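 In K562 cells expressing nanoluciferase-fused kinases, luminescence was recorded at 4 h intervals between 2 and 18 h, normalized as percent of control with DMSO at 100% and a positive control at 0%. A significant (2 sigma) signal drop marks a time point as decreased. The authors' rule for a hit is not shown and takes in more than the number of time points.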
# Target: PRKCA (UniProt P17252)
# Test: number of time points (of 5) at which kinase-Nluc abundance scored as decreased, DMSO-normalised (count); higher = more persistent destabilization
# Details: K562; 2-18 h
row,SMILES,number of time points
1,CS(=O)(=O)c1ccc(-c2noc(C(F)(F)F)c2-c2ccccc2)cc1 (10 µM),0
2,COc1ccc2[nH]cc(/C=C3\C(=O)Nc4ccc(NC(=O)CCN5CCCCC5)cc43)c2c1 (2.5 µM),0
3,O=C(Nc1ccc(F)cc1F)[C@H](NC(=S)Nc1cc(C(F)(F)F)cc(C(F)(F)F)c1)c1ccccc1 (2.5 µM),0
4,CC(C)CN[C@H]1CS(=O)(=O)C[C@@H]1S(=O)(=O)c1ccc(Cl)cc1 (10 µM),0
5,COc1ccc(C2CC(c3ccccc3)=NN2c2ccc(S(N)(=O)=O)cc2)cc1 (configuration not stated) (10 µM),0
6,CC/C=C\C/C=C\C/C=C\CCCCCCCC(=O)O [α-Linolenic acid] (10 µM),0
7,O=C(Nc1nc2ccccc2[nH]1)c1cccc(-n2cccc2)c1 (10 µM),0
8,COc1ncc(-c2nc(N3CCOCC3)nc3c(CN4CCC(C(C)(C)O)CC4)cc(F)cc23)cc1NS(C)(=O)=O [Linperlisib] (10 µM),0
9,COc1ccc([C@H]2c3[nH]c4ccc(Cl)cc4c3CCN2C(=O)Oc2ccc(Cl)cc2)cc1 (2.5 µM),0
10,COc1c(NC(=O)C(=O)c2ccc(OCCN3CCOCC3)c3ccccc23)cc(C(C)(C)C)cc1NS(C)(=O)=O (2.5 µM),0
11,COc1ccc([C@@H]2CC(=O)c3c(O)cc(O)cc3O2)cc1O [Hesperetin] (10 µM),0
12,N#Cc1cccc(-c2c[nH]c3ncnc(N4CCOCC4)c23)c1 (10 µM),0
13,C/C(=C1/C(=O)Nc2ccc(NC(N)=O)cc21)c1ccc[nH]1 (10 µM),0
14,Nc1ncnc2c1c(-c1ccc(Oc3ccccc3)cc1)nn2C1CCNCC1 [N-piperidine Ibrutinib (hydrochloride)] (10 µM),0
15,N#Cc1ccc2ncnc(NC3CCC(N4CCOCC4)CC3)c2c1 (configuration not stated) (10 µM),0
16,CC(=O)c1c(C)c2cnc(Nc3ccc(N4CCN(CCCCNC(=O)COc5cccc6c5C(=O)N(C5CCC(=O)NC5=O)C6=O)CC4)cn3)nc2n(C2CCCC2)c1=O (configuration not stated) (10 µM),0
17,CC(C)=CC(=O)CCC(=O)N1CCN(Cc2cc3nc(-c4cccc5[nH]ncc45)nc(N4CCOCC4)c3s2)CC1 (10 µM),0
18,Cc1ccc(S(=O)(=O)Nc2ccccc2C=Nc2ccccc2NS(=O)(=O)c2ccc(C)cc2)cc1 (10 µM),0
19,NCCN1CCN(C/C=C/C(=O)N2CCC[C@@H](n3nc(-c4ccc(Oc5ccccc5)cc4)c4c(N)ncnc43)C2)CC1 [Ibrutinib-MPEA] (10 µM),0
20,O=C(CNC(=O)c1ccc(-c2ccccc2)cc1)NC1CCCc2ccccc21 (configuration not stated) [TAO Kinase inhibitor 1] (10 µM),0
21,CC(C)CN(CC(=O)N1CCN(CC(OCc2ccc3ccccc3c2)c2ccc(Cl)cc2Cl)CC1)CC(C)C (configuration not stated) [LYN-1604 (dihydrochloride)] (2.5 µM),0
22,CO[C@H]1C[C@@H]2CC[C@@H](C)[C@@](O)(O2)C(=O)C(=O)N2CCCC[C@H]2C(=O)O[C@H]([C@H](C)C[C@@H]2CC[C@@H](O)[C@H](OC)C2)CC(=O)[C@H](C)/C=C(\C)[C@@H](O)[C@@H](OC)C(=O)[C@H](C)C[C@H](C)/C=C/C=C/C=C/1C [Rapamycin] (10 µM),0
23,Cc1ccc(Nc2cc(-c3cccc(N4C(=O)c5ccccc5C4=O)c3)ncn2)cc1NS(C)(=O)=O (10 µM),0
24,Nc1cc(Nc2ccc(S(N)(=O)=O)cc2)ncn1 (10 µM),0
25,CCOc1cc(C(=O)N2CCC(N3CCN(C)CC3)CC2)ccc1Nc1ncc2c(n1)N(C1CCCC1)c1ccccc1C(=O)N2C (10 µM),0
26,COCCOc1ccc(-c2cn(-c3ccccc3)c3nc[nH]c(=O)c23)cc1 (10 µM),0
27,Cc1cc(O)c(C(C)C)cc1N=O [Poloxime] (10 µM),0

# Compounds above with fluorine:
row,SMILES,number of time points
1,CS(=O)(=O)c1ccc(-c2noc(C(F)(F)F)c2-c2ccccc2)cc1 (10 µM),0
3,O=C(Nc1ccc(F)cc1F)[C@H](NC(=S)Nc1cc(C(F)(F)F)cc(C(F)(F)F)c1)c1ccccc1 (2.5 µM),0
8,COc1ncc(-c2nc(N3CCOCC3)nc3c(CN4CCC(C(C)(C)O)CC4)cc(F)cc23)cc1NS(C)(=O)=O [Linperlisib] (10 µM),0
